Measurements: US20220073642A1, “METHODS OF USING SURUFATINIB IN TREATING ADVANCED PANCREATIC AND EXTRA-PANCREATIC NEUROENDOCRINE TUMORS” (HUTCHISON MEDIPHARMA LIMITED, priority 2020, published 2022)

Experiment: SANET-ep Phase III study, safety and exposure (NCI CTCAE v4.03)
Format: in vivo, human
Details: N = 129
Experimental: This study is a randomized, double-blind, placebo-controlled, multi-center Phase III study to assess the efficacy and safety of Surufatinib in treating advanced extra-pancreatic neuroendocrine tumors.
Surufatinib, 300 mg, once daily (QD), orally
Continuous administration (every 4 weeks as a treatment cycle).

Cc1cc2cc(Oc3ccnc(Nc4cccc(CS(=O)(=O)NCCN(C)C)c4)n3)ccc2[nH]1 [Surufatinib, N-(2-(dimethylamino)ethyl)-1-(3-((4-((2-methyl-1H-indol-5-yl)oxy)pyrimidin-2-yl)amino)phenyl)-methanesulfonamide]
treatment discontinuation for disease progression: 47.3%
